Measurements from the supplement of paper PMC8728848.
Some of the results follow.

Experiments:
Test in all cases: glycan array binding signal (z-score within array); higher = stronger binding
Conditions in all cases: glycan notation: IUPAC condensed, linker removed
Gal(b1-3)GalNAc = target: Gal(b1-3)GalNAc
Summary of the method: (§1)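 Glycan array binding is given as a within-array Z-score, which can be read as non-binding when negative. The arrays, 3228 of them, came from the Consortium for Functional Glycomics database and were retained only where the protein sequence was available. Z-scores were averaged across arrays of the same protein sequence at different concentrations or buffers and across linkers.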

[1] = target: Gal(b1-3)GalNAc(a1-3)[Fuc(a1-2)]Gal(b1-4)Glc
Summary of the method: as §1

[2] = target: Gal(b1-3)GalNAc(a1-3)[Fuc(a1-2)]Gal(b1-4)GlcNAc
Summary of the method: as §1

[3] = target: Gal(b1-3)GalNAc(b1-3)Gal(a1-4)Gal(b1-4)Glc
Summary of the method: as §1

[4] = target: Gal(b1-3)GalNAc(b1-4)Gal(b1-4)Glc
Summary of the method: as §1

[5] = target: Gal(b1-3)GalNAc(b1-4)[Neu5Ac(a2-3)]Gal(b1-4)Glc
Summary of the method: as §1

Gal(b1-3)GlcNAc = target: Gal(b1-3)GlcNAc
Summary of the method: as §1

[6] = target: Gal(b1-3)GlcNAc(a1-6)Gal(b1-4)GlcNAc
Summary of the method: as §1

[7] = target: Gal(b1-3)GlcNAc(b1-2)Man(a1-3)[Gal(b1-3)GlcNAc(b1-2)Man(a1-6)]Man(b1-4)GlcNAc(b1-4)GlcNAc
Summary of the method: as §1

[8] = target: Gal(b1-3)GlcNAc(b1-2)Man(a1-3)[Gal(b1-3)GlcNAc(b1-2)Man(a1-6)]Man(b1-4)GlcNAc(b1-4)[Fuc(a1-6)]GlcNAc
Summary of the method: as §1

[9] = target: Gal(b1-3)GlcNAc(b1-2)[Gal(b1-3)GlcNAc(b1-6)]Man(a1-6)[Gal(b1-3)GlcNAc(b1-2)Man(a1-3)]Man(b1-4)GlcNAc(b1-4)GlcNAc
Summary of the method: as §1

[10] = target: Gal(b1-3)GlcNAc(b1-3)Gal(b1-3)GlcNAc
Summary of the method: as §1

[11] = target: Gal(b1-3)GlcNAc(b1-3)Gal(b1-4)Glc
Summary of the method: as §1

[12] = target: Gal(b1-3)GlcNAc(b1-3)Gal(b1-4)GlcNAc
Summary of the method: as §1

[13] = target: Gal(b1-3)GlcNAc(b1-3)Gal(b1-4)GlcNAc(b1-6)[Gal(b1-3)GlcNAc(b1-3)]Gal(b1-4)Glc
Summary of the method: as §1

[14] = target: Gal(b1-3)GlcNAc(b1-3)Gal(b1-4)[Fuc(a1-3)]GlcNAc(b1-6)[Gal(b1-3)GlcNAc(b1-3)]Gal(b1-4)Glc
Summary of the method: as §1

[15] = target: Gal(b1-3)GlcNAc(b1-3)GalNAc
Summary of the method: as §1

[16] = target: Gal(b1-3)GlcNAc(b1-6)Gal(b1-4)GlcNAc
Summary of the method: as §1

[17] = target: Gal(b1-3)[Fuc(a1-4)]GlcNAc
Summary of the method: as §1

[18] = target: Gal(b1-3)[Fuc(a1-4)]GlcNAc(b1-2)Man(a1-3)[Gal(b1-3)[Fuc(a1-4)]GlcNAc(b1-2)Man(a1-6)]Man(b1-4)GlcNAc(b1-4)GlcNAc
Summary of the method: as §1

[19] = target: Gal(b1-3)[Fuc(a1-4)]GlcNAc(b1-2)Man(a1-3)[Gal(b1-3)[Fuc(a1-4)]GlcNAc(b1-2)Man(a1-6)]Man(b1-4)GlcNAc(b1-4)[Fuc(a1-6)]GlcNAc
Summary of the method: as §1

[20] = target: Gal(b1-3)[Fuc(a1-4)]GlcNAc(b1-3)Gal(b1-3)[Fuc(a1-4)]GlcNAc
Summary of the method: as §1

[21] = target: Gal(b1-3)[Fuc(a1-4)]GlcNAc(b1-3)Gal(b1-4)GlcNAc
Summary of the method: as §1

[22] = target: Gal(b1-3)[Fuc(a1-4)]GlcNAc(b1-3)Gal(b1-4)[Fuc(a1-3)]GlcNAc
Summary of the method: as §1

[23] = target: Gal(b1-3)[GlcNAc(b1-6)]GalNAc
Summary of the method: as §1

[24] = target: Gal(b1-3)[Neu5Ac(a2-6)]GalNAc
Summary of the method: as §1

[25] = target: Gal(b1-3)[Neu5Ac(a2-6)]GlcNAc(b1-6)Gal(b1-4)Glc
Summary of the method: as §1

[26] = target: Gal(b1-3)[Neu5Ac(b2-6)]GalNAc
Summary of the method: as §1

Gal(b1-4)Gal = target: Gal(b1-4)Gal
Summary of the method: as §1

[27] = target: Gal(b1-4)GalNAc(a1-3)[Fuc(a1-2)]Gal(b1-4)GlcNAc
Summary of the method: as §1

[28] = target: Gal(b1-4)GalNAc(b1-3)[Fuc(a1-2)]Gal(b1-4)GlcNAc
Summary of the method: as §1

Gal(b1-4)Glc = target: Gal(b1-4)Glc
Summary of the method: as §1

Gal(b1-4)Glc6S = target: Gal(b1-4)Glc6S
Summary of the method: as §1

Gal(b1-4)GlcNAc = target: Gal(b1-4)GlcNAc
Summary of the method: as §1

[29] = target: Gal(b1-4)GlcNAc(a1-6)Gal(b1-4)GlcNAc
Summary of the method: as §1

[30] = target: Gal(b1-4)GlcNAc(b1-2)Man(a1-3)Man(b1-4)GlcNAc(b1-4)GlcNAc
Summary of the method: as §1

[31] = target: Gal(b1-4)GlcNAc(b1-2)Man(a1-3)[Gal(b1-4)GlcNAc(b1-2)Man(a1-6)]Man(b1-4)GlcNAc(b1-4)GlcNAc
Summary of the method: as §1

[32] = target: Gal(b1-4)GlcNAc(b1-2)Man(a1-3)[Gal(b1-4)GlcNAc(b1-2)Man(a1-6)]Man(b1-4)GlcNAc(b1-4)[Fuc(a1-6)]GlcNAc
Summary of the method: as §1

[33] = target: Gal(b1-4)GlcNAc(b1-2)Man(a1-3)[Gal(b1-4)GlcNAc(b1-2)][GlcNAc(b1-4)]Man(b1-4)GlcNAc(b1-4)GlcNAc
Summary of the method: as §1

[34] = target: Gal(b1-4)GlcNAc(b1-2)Man(a1-3)[GlcNAc(b1-2)Man(a1-6)]Man(b1-4)GlcNAc(b1-4)GlcNAc
Summary of the method: as §1

[35] = target: Gal(b1-4)GlcNAc(b1-2)Man(a1-3)[Man(a1-6)]Man(b1-4)GlcNAc(b1-4)GlcNAc
Summary of the method: as §1

[36] = target: Gal(b1-4)GlcNAc(b1-2)Man(a1-6)Man(b1-4)GlcNAc(b1-4)GlcNAc
Summary of the method: as §1

[37] = target: Gal(b1-4)GlcNAc(b1-2)Man(a1-6)[GlcNAc(b1-2)Man(a1-3)]Man(b1-4)GlcNAc(b1-4)GlcNAc
Summary of the method: as §1

[38] = target: Gal(b1-4)GlcNAc(b1-2)Man(a1-6)[Man(a1-3)]Man(b1-4)GlcNAc(b1-4)GlcNAc
Summary of the method: as §1

[39] = target: Gal(b1-4)GlcNAc(b1-2)[Gal(b1-4)GlcNAc(b1-4)]Man(a1-3)[Gal(b1-4)GlcNAc(b1-2)Man(a1-6)]Man(b1-4)GlcNAc(b1-4)GlcNAc
Summary of the method: as §1

B1: pullulanase (Streptococcus pyogenes), Q8KLP1 (protein)
chain: MKKKVNQGSKRYQYLLKKWGIGFVIAATGTVMLGCIPSILTHQVAAKTIVGLARDEAQQGDGNAKSGDGFQSSSKEAKPVLDSSSANPASIAEHHLRMHFKTLPAGESLGSLGLWVWGDVDQPSKDWPNGAITMTKAKKDDYGYYLDVPLAAKHRQQVSYLINNKAGENLSKDQHIPLLTPKMNEVWIDENYHAHAYRPLKKGYLRINYHNQSGHYDNLAVWTFKDVKTPTTDWPNGLDLSHKGPYGAYVDVPLKEGANEIGFLILDKSKTGDAIKVQPKDYLFKELDNHTQVFVKDTDPKVYNNPYYIDQVSLKGAEQTTPNEIKAIFTTLDGLDEDAVKQNIKITDKAGKTVAIDELTLDKDKSVMTLKGDFKAQGAVYTVTFGEVSQVARQSWQLKDKLYAYDGELGATLAKDGSVDLALWSPSADSVKVVVYDKQDQTKVVGQADLTKSDKGVWRAHLTSDSVKGISDYTGYYYLYEITRGQEKVMVLDPYAKSLAAWNDATATDDIKTAKAAFIDPSKLGPTGLDFAKINNFKKREDAIIYEAHVRDFTSDKALEGKLTHPFGTFSAFVEQLDYLKDLGVTHVQLLPVLSYFYANELDKTRSTAYTSSDNNYNWGYDPQHYFALSGMYSANPNDPALRIAELKNLVNEIHKRGMGVIFDVVYNHTARTYLFEDLEPNYYHFMNADGTARESFGGGRLGTTHAMSRRILVDSITYLTREFKVDGFRFDMMGDHDAAAIEQAFKAAKAINPNTIMIGEGWRTYQGDEGKKEIAADQDWMKATNTVGVFSDDIRNTLKSGFPNEGTAAFITGGAKNLEGLFKTIKAQPSNFEADAPGDVVQYIAAHDNLTLHDVIAKSINKDPKVAEEEIHKRIRLGNTMILTAQGTAFIHSGQEYGRTKQLLNPDYKTKVSDDKVPNKATLIDAVAQYPYFIHDSYDSSDAVNHFDWAKATDSIAHPISNQTKAYTQGLIALRRSTDAFTKATKAEVDRDVTLITQAGQDGIQQEDLIMGYQTVASNGDRYAVFVNADNKTRKVVLPQAYRYLLGAQVLADAEQVGVTAIAKPKGVQFTKEGLTIDGLTALVLKVSSKTANPSQQKSQTDNHQTKTPDGSKDLDKSLMTRPKRAKTNQKLPKTGEAPSKGLLAAGVALLLLAISLLMKRQKD
glycan array binding signal (z-score) (Gal(b1-3)GalNAc): 0.229 | glycan array binding signal (z-score) [1]: 0.712 | glycan array binding signal (z-score) [2]: -1.08 | glycan array binding signal (z-score) [3]: -1.06 | glycan array binding signal (z-score) [4]: 1.37 | glycan array binding signal (z-score) [5]: -0.953 | glycan array binding signal (z-score) (Gal(b1-3)GlcNAc): -0.745 | glycan array binding signal (z-score) [6]: -1.04 | glycan array binding signal (z-score) [7]: 0.125 | glycan array binding signal (z-score) [8]: 0.536 | glycan array binding signal (z-score) [9]: -0.345 | glycan array binding signal (z-score) [10]: 1.49 | glycan array binding signal (z-score) [11]: -1.58 | glycan array binding signal (z-score) [12]: 2.25 | glycan array binding signal (z-score) [13]: 0.184 | glycan array binding signal (z-score) [14]: -0.674 | glycan array binding signal (z-score) [15]: -0.015 | glycan array binding signal (z-score) [16]: 1.28 | glycan array binding signal (z-score) [17]: 0.027 | glycan array binding signal (z-score) [18]: 6.24 | glycan array binding signal (z-score) [19]: 2.86 | glycan array binding signal (z-score) [20]: 0.684 | glycan array binding signal (z-score) [21]: -0.836 | glycan array binding signal (z-score) [22]: -0.858 | glycan array binding signal (z-score) [23]: 0.132 | glycan array binding signal (z-score) [24]: 0.382 | glycan array binding signal (z-score) [25]: -0.813 | glycan array binding signal (z-score) [26]: -0.582 | glycan array binding signal (z-score) (Gal(b1-4)Gal): -1.71 | glycan array binding signal (z-score) [27]: -0.33 | glycan array binding signal (z-score) [28]: 1.28 | glycan array binding signal (z-score) (Gal(b1-4)Glc): 0.234 | glycan array binding signal (z-score) (Gal(b1-4)Glc6S): -0.375 | glycan array binding signal (z-score) (Gal(b1-4)GlcNAc): 0.731 | glycan array binding signal (z-score) [29]: -0.44 | glycan array binding signal (z-score) [30]: -0.406 | glycan array binding signal (z-score) [31]: 0.669 | glycan array binding signal (z-score) [32]: 0.304 | glycan array binding signal (z-score) [33]: -1.23 | glycan array binding signal (z-score) [34]: -0.838 | glycan array binding signal (z-score) [35]: -0.985 | glycan array binding signal (z-score) [36]: 0.381 | glycan array binding signal (z-score) [37]: -0.716 | glycan array binding signal (z-score) [38]: 0.719 | glycan array binding signal (z-score) [39]: -0.477
